# Measured values as given in US20220265873 (published 2022).
# Experiment: peptide synthesis
# Details: whole synthesis, 280 nm
substance,measurement,value
"N^α-{4-azido-3,3-dimethyl-1-[(N,N-dimethyl)amino-sulfonyl]-2-butyloxycarbonyl}-[Gln^28]exenatide",final HPLC purity,90.0%
